{"source": "patent US20130317053A1", "about": "“EXTERNALLY-USED DRUG FOR TREATING SKIN DISORDER AND METHOD FOR PRODUCING SAME” (OSAKA UNIVERSITY, priority 2011, published 2013)", "key": {"melanocytes": {"system": "melanocytes", "test": "amount of production of melanin by melanocytes", "type": "cell-based, human", "details": "1 nM or 10 nM, 4 days; melanocytes 1 and 2; FIGS. 23, 24"}, "HIF1α": {"system": "HIF1α", "test": "expression level of HIF1α mRNA in melanocytes (real time PCR)", "type": "cell-based", "details": "1 nM or 10 nM, 48 hours, corrected by GAPDH, FIG. 29"}, "VEGF": {"system": "VEGF", "test": "inhibition of VEGF expression in HaCat", "type": "cell-based", "details": "1 nM, 10 nM, 48 hours, (d) of FIG. 19", "description": "A cell of angiofibroma, a human fibroblast, and HaCat, each of which was isolated from a patient with tuberous sclerosis complex, were used. Isolation of the cell of angiofibroma was carried out by removing angiofibroma from a patient who wished the angiofibroma to be removed and then using the primary culturing method. […] HaCat was purchased from German Cancer Research Center (dkfz). The cells obtained from the respective patients were used with the patients' consent.\nThe cell of angiofibroma, the human fibroblast, and HaCat were each cultured with use of a DME culture medium at a temperature of 37° C. in a 5% CO2 environment. During the culture of these cells, sirolimus was added to each of the culture mediums so as to have a final concentration of 0 nM (that is, no sirolimus is added to a culture medium (a control)), 1 nM, 10 nM, or 20 nM. The cells were each incubated again at a temperature of 37° C. in a 5% CO2 environment, and a culture supernatant was collected […] after sirolimus was added. A concentration of VEGF in the collected culture supernatant was measured with use of a kit (Quantikine® Human VEGF manufactured by R&D SYSTEMS®) for detecting VEGF."}}, "note": "At least one compound was matched to its structure with a doubt left."}
{"smiles": "CO[C@H]1C[C@@H]2CC[C@@H](C)[C@@](O)(O2)C(=O)C(=O)N2CCCC[C@H]2C(=O)O[C@H]([C@H](C)C[C@@H]2CC[C@@H](O)[C@H](OC)C2)CC(=O)[C@H](C)/C=C(\\C)[C@@H](O)[C@@H](OC)C(=O)[C@H](C)C[C@H](C)/C=C/C=C/C=C/1C", "note": "[sirolimus]", "values": [{"measurement": "amount of production of melanin per 1×10^4 cells", "setting": "melanocytes", "result": "increase in amount of production of melanin"}, {"measurement": "expression level of HIF1α", "setting": "HIF1α", "result": "decreased"}, {"measurement": "expression level of VEGF", "setting": "VEGF", "result": "decreased as a concentration of sirolimus was increased"}]}
